Data from PMC5520704.
No constants are given. Whether binding was seen depends on the method and setting. In cells and extracts the contact can be indirect. Some results given as binding are weak or reduced against the parent protein; the word gives no strength.

Sequences of proteins named here, by UniProt entry; tags and fusion partners are left off.
UniProt P06748: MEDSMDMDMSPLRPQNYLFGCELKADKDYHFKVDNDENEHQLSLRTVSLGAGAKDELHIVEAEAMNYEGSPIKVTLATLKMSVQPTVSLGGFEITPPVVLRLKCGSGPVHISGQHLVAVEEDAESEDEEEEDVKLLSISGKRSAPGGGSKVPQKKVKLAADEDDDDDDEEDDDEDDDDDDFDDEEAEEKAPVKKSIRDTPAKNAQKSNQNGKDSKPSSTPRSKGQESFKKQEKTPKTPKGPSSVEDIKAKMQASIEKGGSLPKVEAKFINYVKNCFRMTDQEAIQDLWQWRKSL
UniProt P03372: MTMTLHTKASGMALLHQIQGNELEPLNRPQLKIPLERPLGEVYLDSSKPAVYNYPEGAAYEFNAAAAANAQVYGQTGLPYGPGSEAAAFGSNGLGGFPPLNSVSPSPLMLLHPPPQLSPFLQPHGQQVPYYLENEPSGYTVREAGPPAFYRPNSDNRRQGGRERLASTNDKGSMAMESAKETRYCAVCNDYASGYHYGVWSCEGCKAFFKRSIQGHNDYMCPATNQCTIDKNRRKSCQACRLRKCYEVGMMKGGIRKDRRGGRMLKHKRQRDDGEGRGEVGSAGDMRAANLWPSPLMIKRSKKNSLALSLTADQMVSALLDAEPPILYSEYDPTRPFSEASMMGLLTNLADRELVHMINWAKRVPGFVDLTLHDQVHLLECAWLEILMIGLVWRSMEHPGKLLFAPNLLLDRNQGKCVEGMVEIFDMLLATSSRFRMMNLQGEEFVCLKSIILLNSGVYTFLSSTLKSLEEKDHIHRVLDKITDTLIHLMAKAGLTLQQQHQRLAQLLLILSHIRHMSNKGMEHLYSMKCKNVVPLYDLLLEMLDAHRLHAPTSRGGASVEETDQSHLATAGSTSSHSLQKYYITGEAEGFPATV

Tests used:
[1] = biological target: T1, BASP1 (human (endogenous in MCF7 and T47D)) (UniProt P80723); assay: co-IP; immunoprecipitation of endogenous BASP1 or ERα (control IgG) from MCF7 nuclear extracts with Dynabeads; immunoblotting; cells also treated 30 min with 10 nM estradiol, 100 nM tamoxifen or vehicle
T1 sequence: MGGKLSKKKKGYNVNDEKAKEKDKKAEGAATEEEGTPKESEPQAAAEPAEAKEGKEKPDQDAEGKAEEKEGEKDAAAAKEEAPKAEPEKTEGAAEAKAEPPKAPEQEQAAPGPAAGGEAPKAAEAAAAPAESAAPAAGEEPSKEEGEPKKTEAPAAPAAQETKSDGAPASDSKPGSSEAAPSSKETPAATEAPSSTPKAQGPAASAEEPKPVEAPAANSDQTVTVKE

[2] = biological target: T1, BASP1 (human (endogenous in MCF7 and T47D)); assay: co-IP; BASP1 immunoprecipitates from T47D cells, with and without tamoxifen treatment; probed for ERα

Row | Substance | binding [1] | binding [2]
1 | nucleophosmin (from UniProt P06748 1-294) | binds | –
2 | oestrogen receptor α (from UniProt P03372 1-595) | binds | binds
